PubChem BioAssay AID686943, Drosophila RNAi Screening Center, 2013
Test: 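Fly genes whose loss alters ERK activation after insulin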 (primary screen). Cell system: Drosophila S2R+ haemocyte-like cells expressing YFP-tagged ERK (Rolled). Knock-down reagent: long dsRNA against Drosophila genes. Conditions: insulin stimulation versus unstimulated cells; dose and duration not given. Read-out: 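Antibody staining for doubly phosphorylated ERK divided by ERK-YFP signal, as plate z-scores, in insulin-treated and untreated cells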. Reading the numbers: replicate 1, z-score of dpERK with insulin and replicate 2, z-score of dpERK with insulin: higher = more active ERK per ERK-YFP after insulin; replicate 1, z-score of dpERK under basal conditions: higher = more basal active ERK per ERK-YFP; replicate 1, z-score of ERK-YFP with insulin: higher = more YFP-tagged ERK signal.
In all, the deposit lists about 23,000 reagents; below is a random part of those with a known target gene and a result. 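Extra replicates exist only for a retested subset of genes; insulin dose and duration not given; both raised and lowered dpERK matter.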 Not stated in the record: the amount of reagent, the time to read-out.

gene	amplicon	replicate 1, z-score of dpERK with insulin	replicate 2, z-score of dpERK with insulin	replicate 1, z-score of dpERK under basal conditions	replicate 1, z-score of ERK-YFP with insulin
Spps (Sp1-like factor for pairing sensitive-silencing)	DRSC15856	-0.1	0.23	-0.01	-1.22
CG14687	DRSC14910	1.7	1.38	-0.34	-0.38
CG32246	DRSC08115	-0.76	-0.84	-0.74	0.89
pck (pickel)	DRSC18565	-0.74	-0.53	-0.39	-0.84
Dscam2 (Down syndrome cell adhesion molecule 2)	DRSC08869	0.21	0.31	0.21	0.05
Dscam2 (Down syndrome cell adhesion molecule 2)	DRSC10198	0.32	-0.73	0.52	-0.94
Dscam2 (Down syndrome cell adhesion molecule 2)	DRSC10285	-3.73	-3.24	-0.6	-3.88
Dscam2 (Down syndrome cell adhesion molecule 2)	DRSC11018	0.17	0.49	0.23	0.8
Dscam2 (Down syndrome cell adhesion molecule 2)	DRSC11019	0.27	1.09	-0.49	-0.07
Dscam2 (Down syndrome cell adhesion molecule 2)	DRSC22526	0.37	-0.29	1.67	0.3
CG15414	DRSC00429	0.84	0.14	0.52	0.21
CG15414	DRSC22353	0.36	0.26	0.1	-0.79
Pex12 (Peroxin 12)	DRSC00622	-0.68	-0.92	-1.66	-2.28
CG9948	DRSC11104	-0.05	0.08	-0.2	-0.11
CG31174	DRSC13518	0.72	0.03	0.86	0.57
NC2beta (Negative Cofactor 2beta)	DRSC01895	0.07	-0.13	0.2	-0.8
CG33341	DRSC22887	-1.2	-0.24	-1.8	0.9
CG40485	DRSC20624	-1.23	-0.4	-1.27	-0.42
CG6870	DRSC02998	0.35	-0.03	0.08	-0.1
loaf (lost and found)	DRSC09130	-0.06	0.41	-0.37	-0.04
CG42355	DRSC07967	-0.45	-0.01	0.03	-0.44
Grl65a (Gustatory receptor-like 65a)	DRSC08837	0.77	0.91	1.37	0.4
Pask (PAS kinase)	DRSC04337	-0.45	0.95	-0.44	0.97

Sorted by “replicate 1, z-score of dpERK with insulin” (highest first): some entries from above.
gene	amplicon	replicate 1, z-score of dpERK with insulin	replicate 2, z-score of dpERK with insulin	replicate 1, z-score of dpERK under basal conditions	replicate 1, z-score of ERK-YFP with insulin
CG31174	DRSC13518	0.72	0.03	0.86	0.57
CG9948	DRSC11104	-0.05	0.08	-0.2	-0.11
